From patent US20170189504A1, “NOVEL PEPTIDES AND COMBINATION OF PEPTIDES FOR USE IN IMMUNOTHERAPY AGAINST VARIOUS CANCERS” (immatics biotechnologies GmbH, priority 2015, published 2017)
For some of these results: Expression grades refer to the transcript from which the peptide derives; gene names, where given, were looked up from the sequence.

What was measured:
[1] = system: HLA-A*02; experiment: Identification and relative LC-MS quantitation of HLA-A*02-presented tumor-associated peptides on tissue samples (presentation profiles, Tables 13A, 13B, 15, FIG. 1); parameters: species or system human; key to Presentation score NHL / Presentation score CLL / Presentation score BRCA / Presentation score AML / Presentation score GB / Presentation score NSCLC / Presentation score GBC_CCC / Presentation score UEC / Presentation score MEL / Presentation score OSCAR / Presentation score GC / Presentation score UBC / Presentation score OC / Presentation score RCC / Presentation score CRC / Presentation score PCA / Presentation score HCC / Presentation score PC / Presentation score SCLC: specifically presented on tumors (++++); very highly over-presented on tumors compared to a panel of normal tissues (+++); highly over-presented on tumors compared to a panel of normal tissues (++); over-presented on tumors compared to a panel of normal tissues (+); details: for Peptide Presentation on cancer entities: HLA-A*02-binding tumor-associated peptides; for Presentation score OC: ovarian cancer (N = 20) vs panel of normal tissues (N = 262)
[2] = system: source genes (mRNA); experiment: Gene and exon expression of source genes, TCGA tumor samples compared with normal tissue samples (Lonsdale, 2013) (Table 17); parameters: species or system human; details: for Target coverage: over-expression category of source gene, READ: Colon and rectal adenocarcinoma (N = 167); for Target coverage: over-expression category of source gene, COAD: Colon and rectal adenocarcinoma (N = 462); for Target coverage: over-expression category of source gene, ESCA: Esophageal cancer (N = 185); for Target coverage: over-expression category of source gene, STAD: Stomach adenocarcinoma (N = 415); for Target coverage: over-expression category of source gene, LGG: Lower grade glioma (N = 534); for Target coverage: over-expression category of source gene, DLBC: Lymphoid neoplasm diffuse large B-cell lymphoma (N = 48); for Target coverage: over-expression category of source gene, OV: Ovarian serous cystadenocarcinoma (N = 309); for Target coverage: over-expression category of source gene, KIRP: Papillary kidney carcinoma (N = 291)
[3] = system: source genes (mRNA); experiment: Expression profiling of source genes by in-house RNASeq of tumor and normal tissues (Table 18, FIG. 2); parameters: species or system human; key: very highly over-expressed in tumors compared to a panel of normal tissues (+++); highly over-expressed in tumors compared to a panel of normal tissues (++); over-expressed in tumors compared to a panel of normal tissues (+); details: source gene of peptide; for Expression score NSCLC: non-small cell lung cancer (N = 11) vs panel of normal tissues; for Expression score OC: ovarian cancer (N = 12) vs panel of normal tissues; for Expression score GB: glioblastoma (N = 24) vs panel of normal tissues; for Expression score NHL: non-Hodgkin lymphoma (N = 10) vs panel of normal tissues
[4] = Table 13A, cancer entities on which the peptide was found presented
[5] = cutoff more than 2-fold above highest 75% percentile of normal tissue samples
[6] = Table 13B, presentation on additional cancer entities

Substance	Peptide Presentation on cancer entities [1, 4]	Target coverage: over-expression category of source gene, READ [2, 5]	Target coverage: over-expression category of source gene, COAD [2, 5]	Target coverage: over-expression category of source gene, ESCA [2, 5]	Target coverage: over-expression category of source gene, STAD [2, 5]	Expression score NSCLC [3]	Expression score OC [3]	Presentation score OC ([1]; HLA-A*02 peptides)	Peptide Presentation on cancer entities [1, 6]	Target coverage: over-expression category of source gene, LGG [2, 5]	Target coverage: over-expression category of source gene, DLBC [2, 5]	Target coverage: over-expression category of source gene, OV [2, 5]	Target coverage: over-expression category of source gene, KIRP [2, 5]	Expression score GB [3]	Expression score NHL [3]	further results
83: peptide found in MST1R (gene looked up) (GQASYFYVA; listed as Homo sapiens) [compound 83]	CRC, AML	C (>=5% of tumors above the cutoff, but <20%)	C (>=5% of tumors above the cutoff, but <20%)	C (>=5% of tumors above the cutoff, but <20%)	C (>=5% of tumors above the cutoff, but <20%)	+	+									Target coverage: over-expression category of source gene, PAAD ([2]; Pancreatic ductal adenocarcinoma (N = 179), cutoff more than 2-fold above highest 75% percentile of normal tissue samples): C (>=5% of tumors above the cutoff, but <20%); Expression score CRC ([3]; colorectal cancer (N = 20) vs panel of normal tissues): ++; Expression score OSCAR ([3]; esophageal cancer incl. gastric-esophageal junction (N = 11) vs panel of normal tissues): +; Expression score GBC_CCC ([3]; gallbladder adenocarcinoma and cholangiocarcinoma (N = 3) vs panel of normal tissues): +; Expression score GC ([3]; gastric cancer (N = 11) vs panel of normal tissues): +++; Expression score PC ([3]; pancreatic cancer (N = 26) vs panel of normal tissues): +++; Expression score UBC ([3]; urinary bladder cancer (N = 10) vs panel of normal tissues): +++
86: peptide found in OGG1 (gene looked up) (SVDSHFQEV; listed as Homo sapiens) [compound 86]	GC, OSCAR, OC	C (>=5% of tumors above the cutoff, but <20%)	C (>=5% of tumors above the cutoff, but <20%)					++++	NSCLC, OC	C (>=5% of tumors above the cutoff, but <20%)	A (>=50% of tumors above the cutoff)	B (>= 20% of tumors above the cutoff, but <50%)	B (>= 20% of tumors above the cutoff, but <50%)	+	+	Presentation score OSCAR ([1]; HLA-A*02 peptides, esophageal cancer, including cancer of the gastric-esophageal junction (N = 17) vs panel of normal tissues (N = 262)): ++++; Presentation score GC ([1]; HLA-A*02 peptides, gastric cancer (N = 29) vs panel of normal tissues (N = 262)): ++++; Target coverage: over-expression category of source gene, GBM ([2]; Glioblastoma multiforme (N = 169), cutoff more than 2-fold above highest 75% percentile of normal tissue samples): B (>= 20% of tumors above the cutoff, but <50%); Target coverage: over-expression category of source gene, LIHC ([2]; Liver hepatocellular carcinoma (N = 374), cutoff more than 2-fold above highest 75% percentile of normal tissue samples): C (>=5% of tumors above the cutoff, but <20%)
91: peptide found in TRRAP (gene looked up) (KLFDESILI; listed as Homo sapiens) [compound 91]	GC, NSCLC, PCA, CLL, OSCAR, OC, SCLC, UEC, BRCA, AML, NHL	C (>=5% of tumors above the cutoff, but <20%)	C (>=5% of tumors above the cutoff, but <20%)	A (>=50% of tumors above the cutoff)	A (>=50% of tumors above the cutoff)	+	+	+	HCC, HNSCC	C (>=5% of tumors above the cutoff, but <20%)	C (>=5% of tumors above the cutoff, but <20%)	B (>= 20% of tumors above the cutoff, but <50%)	C (>=5% of tumors above the cutoff, but <20%)	+	+	Presentation score AML ([1]; HLA-A*02 peptides, acute myeloid leukemia (N = 18) vs panel of normal tissues (N = 262)): +; Presentation score NHL ([1]; HLA-A*02 peptides, non-Hodgkin lymphoma (N = 18) vs panel of normal tissues (N = 262)): +; Presentation score NSCLC ([1]; HLA-A*02 peptides, non-small cell lung cancer (N = 90) vs panel of normal tissues (N = 262)): ++; Target coverage: over-expression category of source gene, LAML ([2]; Acute Myeloid Leukemia (N = 173), cutoff more than 2-fold above highest 75% percentile of normal tissue samples): A (>=50% of tumors above the cutoff); Target coverage: over-expression category of source gene, BRCA ([2]; Breast cancer (N = 1104), cutoff more than 2-fold above highest 75% percentile of high and medium risk normal tissue samples): B (>= 20% of tumors above the cutoff, but <50%); Target coverage: over-expression category of source gene, KIRC ([2]; Clear cell kidney carcinoma (N = 534), cutoff more than 2-fold above highest 75% percentile of normal tissue samples): C (>=5% of tumors above the cutoff, but <20%); Target coverage: over-expression category of source gene, KICH ([2]; Kidney chromophobe (N = 66), cutoff more than 2-fold above highest 75% percentile of normal tissue samples): C (>=5% of tumors above the cutoff, but <20%); Target coverage: over-expression category of source gene, LUAD ([2]; Lung adenocarcinoma (N = 517), cutoff more than 2-fold above highest 75% percentile of normal tissue samples): C (>=5% of tumors above the cutoff, but <20%); Target coverage: over-expression category of source gene, LUSC ([2]; Lung squamous cell carcinoma (N = 503), cutoff more than 2-fold above highest 75% percentile of normal tissue samples): C (>=5% of tumors above the cutoff, but <20%); Target coverage: over-expression category of source gene, PRAD ([2]; Prostate adenocarcinoma (N = 498), cutoff more than 2-fold above highest 75% percentile of normal tissue samples): C (>=5% of tumors above the cutoff, but <20%); Target coverage: over-expression category of source gene, SKCM ([2]; Skin cutaneous melanoma (N = 473), cutoff more than 2-fold above highest 75% percentile of normal tissue samples): C (>=5% of tumors above the cutoff, but <20%); Target coverage: over-expression category of source gene, UCEC ([2]; Uterine corpus endometrial carcinoma (N = 546), cutoff more than 2-fold above highest 75% percentile of normal tissue samples): C (>=5% of tumors above the cutoff, but <20%); Expression score CLL ([3]; chronic lymphocytic leukemia (N = 10) vs panel of normal tissues): +; Expression score SCLC ([3]; small cell lung cancer (N = 10) vs panel of normal tissues): +
